Measured values reported in paper PMC4548209.
No constants are given. Whether binding was seen depends on the method and setting. Binding calls can cover weak binding; strength is not graded here.

Protein sequences, listed by entry. Tags and fused reporters are not part of them. Lines headed by an entry give the natural chain unless they say otherwise; changes in a name come on top.
UniProt P42582: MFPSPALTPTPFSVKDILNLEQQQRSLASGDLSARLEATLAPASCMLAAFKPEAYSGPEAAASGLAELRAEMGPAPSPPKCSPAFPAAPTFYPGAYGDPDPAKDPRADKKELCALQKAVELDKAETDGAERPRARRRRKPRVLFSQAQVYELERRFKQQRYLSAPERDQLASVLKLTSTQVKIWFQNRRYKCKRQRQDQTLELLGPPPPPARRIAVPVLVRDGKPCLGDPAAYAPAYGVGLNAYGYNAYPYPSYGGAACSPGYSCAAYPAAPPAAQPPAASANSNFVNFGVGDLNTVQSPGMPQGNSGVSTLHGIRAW

Target: Full-length NKX2-5 (yeast two-hybrid fusion) (mouse) (UniProt P42582)
Test: two-hybrid; pGADT7-AD and pGBKT7-DBD fusions co-transformed into S. cerevisiae AH109; interaction as growth on -Ade/-His/-Leu/-Trp plates; three independent experiments

Row | binding | Substance
1 | binds | NKX2-5 C-terminus with mutated NK2-specific domain (yeast two-hybrid fusion) (from UniProt P42582) (domain or fragment)
2 | binds | NKX2-5 C-terminus with mutated Nkx2-5 box (yeast two-hybrid fusion) (from UniProt P42582) (domain or fragment)
